Source: PMC4684333
The exact form of at least one protein or probe is not confirmed. A negative result means that nothing was seen under these conditions. For part of these data: Results from cells or extracts need not show a direct contact. For part of these data: Protein sequences can lack the tags named with them. For part of these data: A weaker result is weaker than the reference pair of the same experiment.

By UniProt entry, the sequences of proteins in these tests, tags left out.
UniProt P08515, whole entry: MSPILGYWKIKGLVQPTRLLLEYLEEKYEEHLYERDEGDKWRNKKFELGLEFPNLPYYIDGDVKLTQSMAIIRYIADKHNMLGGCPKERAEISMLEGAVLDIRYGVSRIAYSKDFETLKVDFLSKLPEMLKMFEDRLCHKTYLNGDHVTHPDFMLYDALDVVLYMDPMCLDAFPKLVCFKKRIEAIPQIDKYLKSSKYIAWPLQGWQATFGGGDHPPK

How the values were obtained:
[1] = target: T1, FLAG-Ouib (Ouija board) (Drosophila melanogaster) (UniProt Q9VHM6); assay: pull-down (ABCD assay, anti-FLAG western); conditions: ABCD: 50 mM Hepes pH 7.9, 150 mM NaCl, 0.5% Triton X-100, 20 ng/ul poly(dI/dC), 4 C, protein in a lysate after overexpression, protein details: N-terminal FLAG, label: 5' biotin on strand 1
T1 sequence (looked up, limits assumed): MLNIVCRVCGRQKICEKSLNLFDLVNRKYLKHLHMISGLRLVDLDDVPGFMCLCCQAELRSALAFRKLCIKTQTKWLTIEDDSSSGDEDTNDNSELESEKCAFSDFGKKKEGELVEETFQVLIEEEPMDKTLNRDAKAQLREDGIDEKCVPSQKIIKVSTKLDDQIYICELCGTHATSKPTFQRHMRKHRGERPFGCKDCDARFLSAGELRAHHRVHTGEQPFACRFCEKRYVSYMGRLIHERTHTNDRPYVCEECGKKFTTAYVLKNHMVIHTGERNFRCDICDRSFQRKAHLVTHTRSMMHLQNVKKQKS

[2] = target: T2, FLAG-M1BP (Drosophila melanogaster) (UniProt Q9VHM3); assay: pull-down (ABCD assay, anti-FLAG western); conditions: ABCD: 50 mM Hepes pH 7.9, 150 mM NaCl, 0.5% Triton X-100, 20 ng/ul poly(dI/dC), 4 C; protein in a lysate after overexpression; protein details: N-terminal FLAG; label: 5' biotin on strand 1
T2 sequence (looked up, limits assumed): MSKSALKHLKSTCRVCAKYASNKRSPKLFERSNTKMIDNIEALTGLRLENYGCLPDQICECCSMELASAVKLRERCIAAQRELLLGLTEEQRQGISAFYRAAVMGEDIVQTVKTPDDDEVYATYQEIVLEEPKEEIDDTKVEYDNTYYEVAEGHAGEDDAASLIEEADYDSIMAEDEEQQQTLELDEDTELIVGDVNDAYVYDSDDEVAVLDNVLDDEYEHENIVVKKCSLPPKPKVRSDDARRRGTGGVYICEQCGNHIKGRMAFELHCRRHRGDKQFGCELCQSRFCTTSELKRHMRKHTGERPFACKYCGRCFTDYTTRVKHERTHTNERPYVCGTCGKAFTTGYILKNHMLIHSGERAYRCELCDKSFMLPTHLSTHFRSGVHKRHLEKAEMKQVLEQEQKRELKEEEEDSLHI

[3] = test system: GST-Ouib-Zf (Drosophila melanogaster); assay: competition with a labelled probe; conditions: x100 and x200 unlabeled competitor against 32P-ORE WT; EMSA: 12 mM Hepes pH 7.9, 1 mM DTT, 1 mM EDTA, 60 mM KCl, 4 mM MgCl2, 2 mM ZnSO4, 50 ng/ul poly(dI-dC), 1 mg/ml BSA, 12% glycerol, 4 C; recombinant protein; residues 150-313; protein details: N-terminal GST (pGEX-4T-3); label: 32P 5' end (probe), unlabeled as competitor
[4] = test system: GST-Ouib-Zf (Drosophila melanogaster); assay: EMSA; conditions: 2 mM ZnSO4, 4 mM MgCl2; EMSA: 12 mM Hepes pH 7.9, 1 mM DTT, 1 mM EDTA, 60 mM KCl, 4 mM MgCl2, 2 mM ZnSO4, 50 ng/ul poly(dI-dC), 1 mg/ml BSA, 12% glycerol, 4 C; recombinant protein; residues 150-313; protein details: N-terminal GST (pGEX-4T-3); label: 32P 5' end (probe), unlabeled as competitor
GST alone = GST alone (UniProt P08515); assay: EMSA; conditions: 2 mM ZnSO4, 4 mM MgCl2; EMSA: 12 mM Hepes pH 7.9, 1 mM DTT, 1 mM EDTA, 60 mM KCl, 4 mM MgCl2, 2 mM ZnSO4, 50 ng/ul poly(dI-dC), 1 mg/ml BSA, 12% glycerol, 4 C; recombinant protein; protein details: GST; label: 32P 5' end (probe), unlabeled as competitor

TCGATACTCCGCACCCAGTGTGACCGTCGAGCGCATGGCATAAA (double strand) [M1BP binding site (MRE) WT, biotinylated (ABCD)]
binding result ([1]; did not efficiently precipitate): binds more weakly
binding result [2]: binds

TCGATACTCCGCACCCAGTGTGACCGTCGAGCGCATGGCATAAA (double strand) [MRE WT (EMSA)]
binding result [3]: no binding
binding result [4]: no binding

TTTGGTATAGTTATAAGCTTTATTATTTAGGCACCATCTTAAAGT (double strand) [ORE WT (EMSA)]
binding result [3]: binds
binding result [4]: binds
binding result (GST alone): no binding

TTTGGTATAGTTATAAGCTTTATTATTTAGGCACCATCTTAAAGT (double strand) [spok ORE WT 45 bp, biotinylated (ABCD)]
binding result [1]: binds
binding result [2]: no binding

TTTGGTATAGTTATACTAGGGCGGCGGGCTGCACCATCTTAAAGT (double strand) [ORE Mut (EMSA)]
binding result [3]: no binding
binding result [4]: no binding

TTTGGTATAGTTATACTAGGGCGGCGGGCTGCACCATCTTAAAGT (double strand) [spok ORE Mut (transversion) 45 bp, biotinylated (ABCD)]
binding result [1]: no binding
